These are yes or no findings as the source states them, for the method shown. Binding can be weak; no strength is given. Sequences can lack the tags named with a protein.
Target: T1, OsbZIP47ΔC (C-terminal truncated OsbZIP47 lacking 186-385 amino acids), Gal4 BD fusion (rice (Oryza sativa)) (UniProt Q5Z6N9)
T1 sequence: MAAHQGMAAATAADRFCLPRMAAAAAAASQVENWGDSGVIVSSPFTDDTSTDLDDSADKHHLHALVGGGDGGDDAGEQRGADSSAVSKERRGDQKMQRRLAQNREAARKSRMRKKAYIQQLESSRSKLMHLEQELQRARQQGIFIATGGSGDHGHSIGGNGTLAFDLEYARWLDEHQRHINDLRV
Assay: two-hybrid; Gal4 BD-OsbZIP47ΔC as bait (pGBDUC1), preys fused to GAL4 AD (pGADC1), yeast pJ69-4A; serial dilution spotting on SD/-Leu-Ura-His + 10 mM 3AT, growth after five days at 30°C; ONPG / X-gal quantitative assay

binding | Substance
no binding | OsETTIN1, GAL4 AD fusion (rice (Oryza sativa))
no binding | OsETTIN2, GAL4 AD fusion (rice (Oryza sativa))
binds | OsMADS1 (MIKC14 domain), GAL4 AD fusion (rice (Oryza sativa)) (domain or fragment)
